Results from PMC9682543.
Results are given in words; binding and its absence hold for the method and conditions named. Binding seen in cells or lysates may run through a third protein. Some entries that bind do so weakly or less than the wild type.

Target: T1, serpinE2 (serine (or cysteine) peptidase inhibitor, clade E, member 2) (mouse (endogenous in neonatal mouse cardiac fibroblasts)) (UniProt Q07235)
T1 sequence: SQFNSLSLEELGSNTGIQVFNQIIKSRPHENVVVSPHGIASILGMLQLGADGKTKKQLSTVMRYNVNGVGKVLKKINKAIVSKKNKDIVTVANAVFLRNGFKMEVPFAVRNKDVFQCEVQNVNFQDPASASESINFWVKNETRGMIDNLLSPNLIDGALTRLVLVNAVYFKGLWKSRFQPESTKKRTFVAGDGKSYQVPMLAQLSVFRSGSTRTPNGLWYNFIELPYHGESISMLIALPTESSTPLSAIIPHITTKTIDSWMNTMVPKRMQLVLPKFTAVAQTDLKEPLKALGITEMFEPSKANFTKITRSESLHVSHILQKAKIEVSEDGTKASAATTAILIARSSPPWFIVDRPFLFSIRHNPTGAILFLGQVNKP
Assay: co-IP; cardiac fibroblasts lysed in IP lysis buffer; complex captured with anti-serpinE2 antibody and Protein A/G PLUS-Agarose, washed with PBS; uPAR and LRP1 detected by immunoblotting; IgG as negative control

binding: binds
B1: urokinase plasminogen activator receptor (uPAR) (receptor, UniProt P35456 24-298)
chain: LQCMQCESNQSCLVEECALGQDLCRTTVLREWQDDRELEVVTRGCAHSEKTNRTMSYRMGSMIISLTETVCATNLCNRPRPGARGRAFPQGRYLECASCTSLDQSCERGREQSLQCRYPTEHCIEVVTLQSTERSLKDEDYTRGCGSLPGCPGTAGFHSNQTFHFLKCCNYTHCNGGPVLDLQSFPPNGFQCYSCEGNNTLGCSSEEASLINCRGPMNQCLVATGLDVLGNRSYTVRGCATASWCQGSHVADSFPTHLNVSVSCCHGSGCNSPTG
